# The other results are listed elsewhere or left out. The list holds hits alone, and they repeat only in part.
# Protein sequences, listed by entry. Tags and fused reporters are not part of them.
# EIF4G3, O43432, UniProt O43432, whole entry: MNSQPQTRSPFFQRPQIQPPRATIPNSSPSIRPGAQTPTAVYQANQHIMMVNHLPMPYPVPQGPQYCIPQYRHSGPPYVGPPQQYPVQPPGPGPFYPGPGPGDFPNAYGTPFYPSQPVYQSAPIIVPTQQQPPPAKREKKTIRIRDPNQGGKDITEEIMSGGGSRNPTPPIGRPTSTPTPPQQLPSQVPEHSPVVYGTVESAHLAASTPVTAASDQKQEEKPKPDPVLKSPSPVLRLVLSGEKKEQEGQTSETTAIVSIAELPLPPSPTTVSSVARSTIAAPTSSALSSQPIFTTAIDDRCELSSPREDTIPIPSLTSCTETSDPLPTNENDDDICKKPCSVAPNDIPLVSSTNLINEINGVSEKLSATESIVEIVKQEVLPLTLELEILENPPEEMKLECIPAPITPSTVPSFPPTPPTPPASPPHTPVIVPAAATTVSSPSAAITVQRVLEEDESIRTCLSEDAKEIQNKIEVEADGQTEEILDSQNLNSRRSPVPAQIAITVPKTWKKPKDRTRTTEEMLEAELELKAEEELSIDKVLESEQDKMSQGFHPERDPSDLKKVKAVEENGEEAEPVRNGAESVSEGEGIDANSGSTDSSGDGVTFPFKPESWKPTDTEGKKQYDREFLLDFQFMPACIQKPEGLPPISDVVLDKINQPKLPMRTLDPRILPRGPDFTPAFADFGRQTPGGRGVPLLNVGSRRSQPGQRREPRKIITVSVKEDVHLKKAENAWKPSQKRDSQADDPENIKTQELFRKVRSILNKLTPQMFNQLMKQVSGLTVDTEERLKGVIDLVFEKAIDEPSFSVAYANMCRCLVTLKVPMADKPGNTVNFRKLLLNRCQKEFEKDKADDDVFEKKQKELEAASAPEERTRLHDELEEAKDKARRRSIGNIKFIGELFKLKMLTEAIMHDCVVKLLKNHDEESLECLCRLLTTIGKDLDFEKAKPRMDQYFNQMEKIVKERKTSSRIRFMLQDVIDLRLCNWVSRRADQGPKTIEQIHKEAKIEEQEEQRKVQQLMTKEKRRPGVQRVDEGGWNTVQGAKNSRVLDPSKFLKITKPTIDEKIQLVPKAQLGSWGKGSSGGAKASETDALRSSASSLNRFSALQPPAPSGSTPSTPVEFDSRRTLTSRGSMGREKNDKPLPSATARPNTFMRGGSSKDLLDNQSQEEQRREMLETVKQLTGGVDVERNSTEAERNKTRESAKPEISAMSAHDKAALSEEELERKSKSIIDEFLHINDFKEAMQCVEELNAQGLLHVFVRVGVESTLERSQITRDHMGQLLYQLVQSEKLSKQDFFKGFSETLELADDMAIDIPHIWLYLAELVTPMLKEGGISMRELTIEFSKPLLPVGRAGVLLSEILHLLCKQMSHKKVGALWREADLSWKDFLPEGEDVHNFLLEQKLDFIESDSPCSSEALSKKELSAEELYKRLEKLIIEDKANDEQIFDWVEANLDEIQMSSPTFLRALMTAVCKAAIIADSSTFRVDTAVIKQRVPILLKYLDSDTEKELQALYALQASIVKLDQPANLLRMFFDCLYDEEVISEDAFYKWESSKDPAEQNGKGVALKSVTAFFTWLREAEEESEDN
# NELFE, P18615, UniProt P18615, whole entry: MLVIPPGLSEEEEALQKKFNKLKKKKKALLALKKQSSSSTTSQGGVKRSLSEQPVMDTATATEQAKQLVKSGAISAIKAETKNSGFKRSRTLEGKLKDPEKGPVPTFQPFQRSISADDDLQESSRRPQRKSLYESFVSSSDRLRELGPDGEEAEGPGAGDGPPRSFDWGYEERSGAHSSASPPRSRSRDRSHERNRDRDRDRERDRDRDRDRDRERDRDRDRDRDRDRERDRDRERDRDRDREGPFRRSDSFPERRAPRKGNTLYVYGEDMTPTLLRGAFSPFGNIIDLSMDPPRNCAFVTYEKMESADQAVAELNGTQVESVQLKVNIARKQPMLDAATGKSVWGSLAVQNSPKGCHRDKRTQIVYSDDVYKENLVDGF
# PFN2, P35080, UniProt P35080, whole entry: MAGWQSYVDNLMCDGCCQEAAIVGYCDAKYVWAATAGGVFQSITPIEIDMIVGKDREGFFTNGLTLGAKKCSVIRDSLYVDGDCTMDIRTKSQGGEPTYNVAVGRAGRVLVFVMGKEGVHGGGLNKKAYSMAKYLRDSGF
# SETD1A, O15047, UniProt O15047, whole entry: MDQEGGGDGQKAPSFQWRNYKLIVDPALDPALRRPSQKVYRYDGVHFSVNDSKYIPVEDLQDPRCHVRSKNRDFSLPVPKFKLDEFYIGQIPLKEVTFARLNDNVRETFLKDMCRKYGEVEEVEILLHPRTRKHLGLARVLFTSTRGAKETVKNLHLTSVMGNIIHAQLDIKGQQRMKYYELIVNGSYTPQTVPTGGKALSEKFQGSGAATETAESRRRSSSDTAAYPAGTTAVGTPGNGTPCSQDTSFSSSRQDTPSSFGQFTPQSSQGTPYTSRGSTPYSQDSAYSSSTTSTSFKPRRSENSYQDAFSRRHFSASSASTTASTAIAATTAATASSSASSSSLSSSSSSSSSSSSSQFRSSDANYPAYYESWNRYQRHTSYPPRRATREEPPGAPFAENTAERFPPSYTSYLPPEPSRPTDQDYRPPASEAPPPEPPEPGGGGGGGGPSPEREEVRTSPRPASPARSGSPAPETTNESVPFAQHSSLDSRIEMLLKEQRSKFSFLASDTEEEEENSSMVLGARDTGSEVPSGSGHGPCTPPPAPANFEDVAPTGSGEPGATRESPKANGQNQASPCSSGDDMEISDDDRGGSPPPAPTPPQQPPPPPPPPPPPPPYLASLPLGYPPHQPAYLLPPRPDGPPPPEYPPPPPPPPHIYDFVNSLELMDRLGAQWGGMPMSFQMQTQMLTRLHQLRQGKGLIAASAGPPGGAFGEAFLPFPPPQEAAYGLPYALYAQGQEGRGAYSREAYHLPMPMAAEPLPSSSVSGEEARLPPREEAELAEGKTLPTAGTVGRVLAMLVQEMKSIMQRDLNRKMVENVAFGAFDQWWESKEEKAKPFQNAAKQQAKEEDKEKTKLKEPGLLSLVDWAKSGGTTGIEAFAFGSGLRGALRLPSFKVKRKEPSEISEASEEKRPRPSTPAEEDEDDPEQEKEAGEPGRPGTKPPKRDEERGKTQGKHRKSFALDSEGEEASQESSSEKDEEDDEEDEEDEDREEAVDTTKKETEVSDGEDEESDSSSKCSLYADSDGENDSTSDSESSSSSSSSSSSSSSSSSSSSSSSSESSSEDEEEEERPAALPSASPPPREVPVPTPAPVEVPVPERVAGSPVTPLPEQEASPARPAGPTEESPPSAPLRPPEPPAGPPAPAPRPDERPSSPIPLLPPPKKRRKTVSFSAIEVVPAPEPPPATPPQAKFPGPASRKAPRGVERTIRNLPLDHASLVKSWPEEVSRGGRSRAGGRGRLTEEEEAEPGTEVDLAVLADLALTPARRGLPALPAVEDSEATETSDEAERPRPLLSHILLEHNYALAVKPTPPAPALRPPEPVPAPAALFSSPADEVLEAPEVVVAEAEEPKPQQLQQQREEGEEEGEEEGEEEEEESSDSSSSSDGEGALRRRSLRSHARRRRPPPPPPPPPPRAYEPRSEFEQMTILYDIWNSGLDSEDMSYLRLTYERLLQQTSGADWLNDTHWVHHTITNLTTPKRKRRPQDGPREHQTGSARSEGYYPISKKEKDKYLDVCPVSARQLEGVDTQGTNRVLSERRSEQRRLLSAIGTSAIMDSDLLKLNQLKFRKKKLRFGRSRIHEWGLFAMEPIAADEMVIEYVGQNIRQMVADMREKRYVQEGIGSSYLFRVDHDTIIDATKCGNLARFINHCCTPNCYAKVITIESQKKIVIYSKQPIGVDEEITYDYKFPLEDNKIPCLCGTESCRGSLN
# Columns and labels:
# Assay in all cases: PRISMA enrichment of interactor (LFQ) in peptide spot vs all other peptide spots (log2 fold change); higher = stronger / more specific binding of the interactor to the peptide
# ABCD3, P28288 = target: ABCD3, P28288
# Method: (§1)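 PRISMA: 15-aa overlapping tiles (offset 8 aa) of 60 microproteins, plus SOS1/GLUT1 control peptides, were spot-synthesized on cellulose membranes in triplicate. Membranes were incubated with benzonase-treated HEK293T lysate, and bound proteins were identified by LC-MS/MS with LFQ. Enrichment is the log2 fold change of each protein in one spot versus all other spots. Only interactors passing the significance cutoff are listed.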
# AP1B1, Q10567 = target: AP1B1, Q10567
# Method: as §1
# CCZ1, P86791 = target: CCZ1, P86791
# Method: as §1
# DDX49, Q9Y6V7 = target: DDX49, Q9Y6V7
# Method: as §1
# DVL2, O14641 = target: DVL2, O14641
# Method: as §1
# EEF1D, P29692 = target: EEF1D, P29692
# Method: as §1
# EIF4G3, O43432 = target: EIF4G3, O43432
# Method: as §1
# FANCD2, Q9BXW9 = target: FANCD2, Q9BXW9
# Method: as §1
# FASTKD5, Q7L8L6 = target: FASTKD5, Q7L8L6
# Method: as §1
# GNL2, Q13823 = target: GNL2, Q13823
# Method: as §1
# GPC4, O75487 = target: GPC4, O75487
# Method: as §1
# HDLBP, Q00341 = target: HDLBP, Q00341
# Method: as §1
# IDH3B, O43837 = target: IDH3B, O43837
# Method: as §1
# KIF5B, P33176 = target: KIF5B, P33176
# Method: as §1
# LARP7, Q4G0J3 = target: LARP7, Q4G0J3
# Method: as §1
# MAP7, Q14244 = target: MAP7, Q14244
# Method: as §1
# MCM6, Q14566 = target: MCM6, Q14566
# Method: as §1
# METTL15, A6NJ78 = target: METTL15, A6NJ78
# Method: as §1
# MRPL22, Q9NWU5 = target: MRPL22, Q9NWU5
# Method: as §1
# NELFE, P18615 = target: NELFE, P18615
# Method: as §1
# NKRF, O15226 = target: NKRF, O15226
# Method: as §1
# NMD3, Q96D46 = target: NMD3, Q96D46
# Method: as §1
# NUMA1, Q14980 = target: NUMA1, Q14980
# Method: as §1
# ORMDL1, Q9P0S3 = target: ORMDL1, Q9P0S3
# Method: as §1
# PFN2, P35080 = target: PFN2, P35080
# Method: as §1
# PHIP, Q8WWQ0 = target: PHIP, Q8WWQ0
# Method: as §1
# PNISR, Q8TF01 = target: PNISR, Q8TF01
# Method: as §1
# RIOK1, Q9BRS2 = target: RIOK1, Q9BRS2
# Method: as §1
# SAE1, Q9UBE0 = target: SAE1, Q9UBE0
# Method: as §1
# SEMG1, P04279 = target: SEMG1, P04279
# Method: as §1
# SETD1A, O15047 = target: SETD1A, O15047
# Method: as §1
# SLC35B2, Q8TB61 = target: SLC35B2, Q8TB61
# Method: as §1
# SNW1, Q13573 = target: SNW1, Q13573
# Method: as §1
# TNRC6A, Q8NDV7 = target: TNRC6A, Q8NDV7
# Method: as §1
# UBAP2, Q5T6F2 = target: UBAP2, Q5T6F2
# Method: as §1
# YWHAH, Q04917 = target: YWHAH, Q04917
# Method: as §1
# ZMPSTE24, O75844 = target: ZMPSTE24, O75844
# Method: as §1
# ZMYM4, Q5VZL5 = target: ZMYM4, Q5VZL5
# Method: as §1
# hCG_1984214 = target: hCG_1984214
# Method: as §1
binder,measurement,setting,value
CGTRHPSTSTSAPNT [THAP7],PRISMA enrichment of interactor (log2),"ABCD3, P28288",4.65
same,PRISMA enrichment of interactor (log2),"AP1B1, Q10567",4.96
same,PRISMA enrichment of interactor (log2),"CCZ1, P86791",7.93
same,PRISMA enrichment of interactor (log2),"DDX49, Q9Y6V7",5.43
same,PRISMA enrichment of interactor (log2),"DVL2, O14641",4.25
same,PRISMA enrichment of interactor (log2),"EEF1D, P29692",4.69
same,PRISMA enrichment of interactor (log2),"EIF4G3, O43432",5.39
same,PRISMA enrichment of interactor (log2),"FANCD2, Q9BXW9",4.89
same,PRISMA enrichment of interactor (log2),"FASTKD5, Q7L8L6",4.82
same,PRISMA enrichment of interactor (log2),"GNL2, Q13823",5.79
same,PRISMA enrichment of interactor (log2),"GPC4, O75487",4.91
same,PRISMA enrichment of interactor (log2),"HDLBP, Q00341",4.66
same,PRISMA enrichment of interactor (log2),"IDH3B, O43837",6.69
same,PRISMA enrichment of interactor (log2),"KIF5B, P33176",6.3
same,PRISMA enrichment of interactor (log2),"LARP7, Q4G0J3",4.57
same,PRISMA enrichment of interactor (log2),"MAP7, Q14244",5.42
same,PRISMA enrichment of interactor (log2),"MCM6, Q14566",4.85
same,PRISMA enrichment of interactor (log2),"METTL15, A6NJ78",4.74
same,PRISMA enrichment of interactor (log2),"MRPL22, Q9NWU5",6.94
same,PRISMA enrichment of interactor (log2),"NELFE, P18615",4.17
same,PRISMA enrichment of interactor (log2),"NKRF, O15226",4.61
same,PRISMA enrichment of interactor (log2),"NMD3, Q96D46",7.38
same,PRISMA enrichment of interactor (log2),"NUMA1, Q14980",5.52
same,PRISMA enrichment of interactor (log2),"ORMDL1, Q9P0S3",5.95
same,PRISMA enrichment of interactor (log2),"PFN2, P35080",4.38
same,PRISMA enrichment of interactor (log2),"PHIP, Q8WWQ0",4.22
same,PRISMA enrichment of interactor (log2),"PNISR, Q8TF01",5.04
same,PRISMA enrichment of interactor (log2),"RIOK1, Q9BRS2",4.54
same,PRISMA enrichment of interactor (log2),"SAE1, Q9UBE0",4.32
same,PRISMA enrichment of interactor (log2),"SEMG1, P04279",6.97
same,PRISMA enrichment of interactor (log2),"SETD1A, O15047",4.6
same,PRISMA enrichment of interactor (log2),"SLC35B2, Q8TB61",4.23
same,PRISMA enrichment of interactor (log2),"SNW1, Q13573",5.66
same,PRISMA enrichment of interactor (log2),"TNRC6A, Q8NDV7",4.19
same,PRISMA enrichment of interactor (log2),"UBAP2, Q5T6F2",4.91
same,PRISMA enrichment of interactor (log2),"YWHAH, Q04917",4.24
same,PRISMA enrichment of interactor (log2),"ZMPSTE24, O75844",6.38
same,PRISMA enrichment of interactor (log2),"ZMYM4, Q5VZL5",3.94
same,PRISMA enrichment of interactor (log2),hCG_1984214,4.97

# Quoted at random: 3 records from the list, in no set order.
binder,measurement,setting,value
CGTRHPSTSTSAPNT [THAP7],PRISMA enrichment of interactor (log2),"CCZ1, P86791",7.93
same,PRISMA enrichment of interactor (log2),"DVL2, O14641",4.25
same,PRISMA enrichment of interactor (log2),"LARP7, Q4G0J3",4.57
